Experimental findings from PMC11218507 are described below.

By UniProt entry, the sequences of proteins in these tests, tags left out.
UniProt Q9SP32: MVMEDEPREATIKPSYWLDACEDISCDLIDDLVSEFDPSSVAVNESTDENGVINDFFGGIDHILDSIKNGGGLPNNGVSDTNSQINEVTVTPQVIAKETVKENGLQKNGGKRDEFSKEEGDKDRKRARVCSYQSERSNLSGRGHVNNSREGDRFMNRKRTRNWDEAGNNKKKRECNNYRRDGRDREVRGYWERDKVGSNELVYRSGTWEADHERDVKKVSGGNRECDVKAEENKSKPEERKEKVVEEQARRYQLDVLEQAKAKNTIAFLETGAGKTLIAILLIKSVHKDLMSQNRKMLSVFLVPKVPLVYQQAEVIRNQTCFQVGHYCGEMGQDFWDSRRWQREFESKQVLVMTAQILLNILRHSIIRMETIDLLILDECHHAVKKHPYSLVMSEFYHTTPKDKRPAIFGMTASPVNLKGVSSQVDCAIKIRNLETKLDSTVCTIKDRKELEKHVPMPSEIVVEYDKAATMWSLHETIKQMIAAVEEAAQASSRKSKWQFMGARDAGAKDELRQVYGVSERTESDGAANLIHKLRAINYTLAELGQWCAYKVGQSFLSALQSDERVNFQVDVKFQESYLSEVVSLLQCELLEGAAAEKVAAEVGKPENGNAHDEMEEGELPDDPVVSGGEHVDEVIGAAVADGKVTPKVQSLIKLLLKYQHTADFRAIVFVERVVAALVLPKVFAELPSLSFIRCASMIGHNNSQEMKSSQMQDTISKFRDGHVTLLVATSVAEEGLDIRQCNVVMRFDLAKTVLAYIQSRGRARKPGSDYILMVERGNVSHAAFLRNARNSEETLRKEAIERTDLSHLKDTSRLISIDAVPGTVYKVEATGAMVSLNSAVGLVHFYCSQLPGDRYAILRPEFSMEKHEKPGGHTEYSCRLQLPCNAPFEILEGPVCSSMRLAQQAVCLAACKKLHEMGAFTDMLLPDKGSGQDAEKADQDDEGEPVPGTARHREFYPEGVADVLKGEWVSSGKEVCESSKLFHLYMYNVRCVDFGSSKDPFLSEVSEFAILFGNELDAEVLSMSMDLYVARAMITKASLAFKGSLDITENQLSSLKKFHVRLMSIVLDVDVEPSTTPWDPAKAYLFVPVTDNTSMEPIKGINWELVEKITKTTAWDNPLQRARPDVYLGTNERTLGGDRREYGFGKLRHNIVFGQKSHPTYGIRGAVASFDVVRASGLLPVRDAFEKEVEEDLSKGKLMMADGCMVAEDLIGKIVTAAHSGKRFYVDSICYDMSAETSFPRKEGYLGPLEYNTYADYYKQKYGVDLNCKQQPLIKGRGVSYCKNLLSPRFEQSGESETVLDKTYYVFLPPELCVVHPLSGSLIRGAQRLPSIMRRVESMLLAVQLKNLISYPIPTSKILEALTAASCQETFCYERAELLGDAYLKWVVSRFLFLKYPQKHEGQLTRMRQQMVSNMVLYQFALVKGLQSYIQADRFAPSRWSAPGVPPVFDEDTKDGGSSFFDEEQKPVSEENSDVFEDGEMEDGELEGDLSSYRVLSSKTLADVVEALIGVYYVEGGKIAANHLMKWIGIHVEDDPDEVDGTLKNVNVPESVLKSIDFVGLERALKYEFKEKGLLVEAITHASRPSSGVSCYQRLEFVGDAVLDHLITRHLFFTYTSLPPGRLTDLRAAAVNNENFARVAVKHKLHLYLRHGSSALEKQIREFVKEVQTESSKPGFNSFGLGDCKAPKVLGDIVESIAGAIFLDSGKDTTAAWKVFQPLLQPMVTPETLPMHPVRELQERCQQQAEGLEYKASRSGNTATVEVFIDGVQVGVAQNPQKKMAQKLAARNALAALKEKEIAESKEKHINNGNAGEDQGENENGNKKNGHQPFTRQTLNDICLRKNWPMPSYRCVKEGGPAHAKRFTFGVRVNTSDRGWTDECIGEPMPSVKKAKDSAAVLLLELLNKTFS

Assay in all cases: split reporter; BiFC with N- and C-terminal regions of mCitrine; coagroinfiltration of N. benthamiana leaves with Fibrillarin-mRFP and p19; confocal microscopy of epidermal cells 3-4 days post-agroinfiltration
Experiment [1] addresses T1, N-mCitrine:AtHYL1 (HYPONASTIC LEAVES 1, BiFC fusion) (A. thaliana) (UniProt O04492).
T1 sequence: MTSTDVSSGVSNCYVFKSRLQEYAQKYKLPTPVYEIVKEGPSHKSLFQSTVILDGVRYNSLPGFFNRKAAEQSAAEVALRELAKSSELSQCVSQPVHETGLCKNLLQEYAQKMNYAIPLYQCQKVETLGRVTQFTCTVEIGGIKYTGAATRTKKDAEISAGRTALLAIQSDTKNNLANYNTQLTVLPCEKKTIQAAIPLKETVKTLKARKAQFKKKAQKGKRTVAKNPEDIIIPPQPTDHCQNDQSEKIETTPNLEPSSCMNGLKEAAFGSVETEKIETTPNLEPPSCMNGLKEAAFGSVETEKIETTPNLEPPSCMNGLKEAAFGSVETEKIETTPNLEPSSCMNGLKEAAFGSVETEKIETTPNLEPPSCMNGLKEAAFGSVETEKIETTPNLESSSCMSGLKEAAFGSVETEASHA

Experiment [2] has as its target T2, N-mCitrine:AtSE (SERRATE, BiFC fusion) (A. thaliana) (UniProt Q9ZVD0).
T2 sequence: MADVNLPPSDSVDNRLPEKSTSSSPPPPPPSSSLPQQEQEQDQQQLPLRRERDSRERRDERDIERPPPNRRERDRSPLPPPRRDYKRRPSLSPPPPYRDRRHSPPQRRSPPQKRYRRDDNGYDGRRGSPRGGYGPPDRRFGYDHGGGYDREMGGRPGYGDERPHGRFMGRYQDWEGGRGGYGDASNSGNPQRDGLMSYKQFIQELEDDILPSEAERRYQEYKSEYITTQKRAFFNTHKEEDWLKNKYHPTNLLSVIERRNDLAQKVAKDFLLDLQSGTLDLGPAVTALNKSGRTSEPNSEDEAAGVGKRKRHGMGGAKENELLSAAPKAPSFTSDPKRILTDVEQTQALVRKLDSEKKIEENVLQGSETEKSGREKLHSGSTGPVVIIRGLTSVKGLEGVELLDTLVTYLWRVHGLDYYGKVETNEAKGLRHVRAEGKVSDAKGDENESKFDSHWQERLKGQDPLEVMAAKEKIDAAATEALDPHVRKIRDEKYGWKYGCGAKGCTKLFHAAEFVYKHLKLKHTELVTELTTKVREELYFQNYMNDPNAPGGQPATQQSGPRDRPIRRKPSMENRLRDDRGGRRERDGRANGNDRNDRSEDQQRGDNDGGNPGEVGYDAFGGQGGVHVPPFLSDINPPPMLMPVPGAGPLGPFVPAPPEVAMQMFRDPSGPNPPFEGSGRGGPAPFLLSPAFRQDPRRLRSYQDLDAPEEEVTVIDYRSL

Experiment [3] deals with N-mCitrine:AtDCL1 (DICER-LIKE 1, BiFC fusion) (A. thaliana) (UniProt Q9SP32).

No constants are given. Whether binding was seen depends on the method and setting. Binding seen in cells or lysates may run through a third protein. For part of these data: Binding calls can cover weak binding; strength is not graded here. For part of these data: Tags and fused reporters may be left off the sequences shown.

For “24KW15A (BiFC fusion) (citrus psorosis virus (CPsV))”, the binding entry in experiment [1] and in experiment [2] was “binds” each time.
For “24KΔC (BiFC fusion) (citrus psorosis virus (CPsV)) (domain or fragment)”, the binding entry in experiment [1] and in experiment [2] was “binds” in each case.
For “24KΔN (BiFC fusion) (from UniProt Q80H97) (domain or fragment)”, the binding result in experiment [1] is listed as “binds”; in experiment [3], “no binding”; in experiment [2], “binds”.
As to “24KΔNES (BiFC fusion) (citrus psorosis virus (CPsV))”, the binding result in experiment [1] and in experiment [2] was “binds” each time.
